Some results were stated once for a whole list of compounds, not compound by compound.
Tested on: Fetuin
Assay: Fetuin pull-down assay (Affigel-Fetuin beads, SDS-PAGE, ImageJ)
Type: binding
Details: low salt buffer, cell lysates
From the text: Fetuin, which contains sialylated complex N-linked glycans, served as the complex N-linked glycomolecule in this example. Fetuin was conjugated to Affigel 15 resin (Bio-Rad, Hercules, Calif.), and then denatured by 6 M Guanidine HCL. After denaturation, the fetuin beads were washed with 50 bead volumes of low salt buffer to remove Guanidine HCL. This immobilized denatured Fetuin was used to screen Fbs mutants for improved affinity to complex N-linked glycomolecules in low salt conditions in a fetuin pull-down assay. In this assay, cell lysates containing the same amount of wild type or mutant Fbs protein were incubated with the same amount of fetuin beads at 4° C. for 1 hour. After incubation, the fetuin beads were washed three times with low salt buffer. The bound Fbs proteins were eluted by 1× gel loading buffer, and analyzed by SDS-PAGE. In the fetuin pull-down assay, the amount of Fbs mutant protein shown on the SDS-PAGE gel indicates the relative affinity of each Fbs mutant for binding to a complex N-linked glycomolecule. Fbs amino acid residue serine 155 was mutated to alanine to assess the effect on the interaction with complex N-linked glycomolecules. Mutation of Ser155 to alanine was expected to reduce the affinity of the interaction between Fbs and fetuin according to the published report of Tanaka et al. (Tanaka, et al. PNAS). […]

B1: PPR: human Fbs SBD variant, positions 154-156 P, P, R (protein)
chain: FYFLSKRRRNLLRNPCGEEDLEGWCDVEHGGDGWRVEELPGPPRVEFTHDESVKKYFASSFEWCRKAQVIDLQAEGYWEELLDTTQPAIVVKDWYSGRSDAGCLYELTVKLLSEHENVLAEFSSGQVAVPQDSDGGGWMEISHTFTDYGPGVRFVRFEHGGQDSVYWKGWFGARVTNSSVWVEP
modifications: left off: large carriers
notes: human Fbs SBD variant, positions 154-156 P, P, R
With B1 the “fetuin pull-down relative to wild type Fbs” value was “up to 2.8 fold”.
